The test system of series [1] is plasma proteins. As to the kind of experiment: Proteins of Table 11 stably expressed in complete responders between days 1 and 28, Example 5 (Table 12). Format: in vivo, human. The following applies: day 1 vs day 28.
Series [2] concerns plasma proteins. As to the kind of experiment: OLINK proximity extension assay of baseline plasma, CR compared to PD/Death, updated classification, Example 5 (Table 11). Format: in vivo, human. The following applies: itacitinib 200 or 300 mg QD plus corticosteroids, response at day 28.

B1: IFN-gamma-R1 (protein, UniProt P15260 18-489, looked up)
Interferon gamma receptor 1: EMGTADLGPSSVPTPTNVTIESYNMNPIVYWEYQIMPQVPVFTVEVKNYGVKNSEWIDACINISHHYCNISDHVGDPSNSLWVRVKARVGQKESAYAKSEEFAVCRDGKIGPPKLDIRKEEKQIMIDIFHPSVFVNGDEQEVDYDPETTCYIRVYNVYVRMNGSEIQYKILTQKEDDCDEIQCQLAIPVSSLNSQYCVSAEGVLHVWGVTTEKSKEVCITIFNSSIKGSLWIPVVAALLLFLVLSLVFICFYIKKINPLKEKSIILPKSLISVVRSATLETKPESKYVSLITSYQPFSLEKEVVCEEPLSPATVPGMHTEDNPGKVEHTEELSSITEVVTTEENIPDVVPGSHLTPIERESSSPLSSNQSEPGSIALNSYHSRNCSESDHSRNGFDTDSSCLESHSSLSDSEFPPNNKGEIKTEGQELITVIKAPTSFGYDKPHVLVDLLVDDSGKESLIGYRPTEDSKEFS
Consider B1, for which the “Fold Change (D1 vs D28), proteins Down-Regulated in CR Compared to PD/Death” value (“Fold Change (D1 vs D28)” for short) in series [1] is −1.0268. In series [2], the “Fold Change, Down-Regulated in CR Compared to PD/Death” value (shortened to “Fold Change, Down-Regulated”) is reported as −1.6515.

B2: HAOX1 (protein, UniProt Q9UJM8 1-370, looked up)
2-Hydroxyacid oxidase 1: MLPRLICINDYEQHAKSVLPKSIYDYYRSGANDEETLADNIAAFSRWKLYPRMLRNVAETDLSTSVLGQRVSMPICVGATAMQRMAHVDGELATVRACQSLGTGMMLSSWATSSIEEVAEAGPEALRWLQLYIYKDREVTKKLVRQAEKMGYKAIFVTVDTPYLGNRLDDVRNRFKLPPQLRMKNFETSTLSFSPEENFGDDSGLAAYVAKAIDPSISWEDIKWLRRLTSLPIVAKGILRGDDAREAVKHGLNGILVSNHGARQLDGVPATIDVLPEIVEAVEGKVEVFLDGGVRKGTDVLKALALGAKAVFVGRPIVWGLAFQGEKGVQDVLEILKEEFRLAMALSGCQNVKVIDKTLVRKNPLAVSKI
For the molecule B2, in series [1], the “Fold Change (D1 vs D28)” value came out at 1.5747. Moreover, the “Fold Change, Down-Regulated” value in series [2] is reported as −7.846.

B3: TGM2 (protein, UniProt P21980 2-687, looked up)
Protein-glutamine …: AEELVLERCDLELETNGRDHHTADLCREKLVVRRGQPFWLTLHFEGRNYEASVDSLTFSVVTGPAPSQEAGTKARFPLRDAVEEGDWTATVVDQQDCTLSLQLTTPANAPIGLYRLSLEASTGYQGSSFVLGHFILLFNAWCPADAVYLDSEEERQEYVLTQQGFIYQGSAKFIKNIPWNFGQFEDGILDICLILLDVNPKFLKNAGRDCSRRSSPVYVGRVVSGMVNCNDDQGVLLGRWDNNYGDGVSPMSWIGSVDILRRWKNHGCQRVKYGQCWVFAAVACTVLRCLGIPTRVVTNYNSAHDQNSNLLIEYFRNEFGEIQGDKSEMIWNFHCWVESWMTRPDLQPGYEGWQALDPTPQEKSEGTYCCGPVPVRAIKEGDLSTKYDAPFVFAEVNADVVDWIQQDDGSVHKSINRSLIVGLKISTKSVGRDEREDITHTYKYPEGSSEEREAFTRANHLNKLAEKEETGMAMRIRVGQSMNMGSDFDVFAHITNNTAEEYVCRLLLCARTVSYNGILGPECGTKYLLNLNLEPFSEKSVPLCILYEKYRDCLTESNLIKVRALLVEPVINSYLLAERDLYLENPEIKIRILGEPKQKRKLVAEVSLQNPLPVALEGCTFTVEGAGLTEEQKTVEIPDPVEAGEEVKVRMDLLPLHMGLHKLVVNFESDKLKAVKGFRNVIIGPA
B3: in series [1], the “Fold Change (D1 vs D28)” value is listed as −1.0122. For the same molecule, the “Fold Change, Down-Regulated” value in series [2] is recorded as −1.5838.

B4: ANGPTL4 (protein, UniProt Q9BY76 26-406, looked up)
Angiopoietin-related protein 4: GPVQSKSPRFASWDEMNVLAHGLLQLGQGLREHAERTRSQLSALERRLSACGSACQGTEGSTDLPLAPESRVDPEVLHSLQTQLKAQNSRIQQLFHKVAQQQRHLEKQHLRIQHLQSQFGLLDHKHLDHEVAKPARRKRLPEMAQPVDPAHNVSRLHRLPRDCQELFQVGERQSGLFEIQPQGSPPFLVNCKMTSDGGWTVIQRRHDGSVDFNRPWEAYKAGFGDPHGEFWLGLEKVHSITGDRNSRLAVQLRDWDGNAELLQFSVHLGGEDTAYSLQLTAPVAGQLGATTVPPSGLSVPFSTWDQDHDLRRDKNCAKSLSGGWWFGTCSHSNLNGQYFRSIPQQRQKLKKGIFWKTWRGRYYPLQATTMLIQPMAAEAAS
In the case of B4, the “Fold Change (D1 vs D28)” value in series [1] was −1.088. Besides, in series [2], the “Fold Change, Down-Regulated” value is given as −1.7097.

B5: NECTIN2 (protein, UniProt Q92692 32-538, looked up)
Nectin-2: QDVRVQVLPEVRGQLGGTVELPCHLLPPVPGLYISLVTWQRPDAPANHQNVAAFHPKMGPSFPSPKPGSERLSFVSAKQSTGQDTEAELQDATLALHGLTVEDEGNYTCEFATFPKGSVRGMTWLRVIAKPKNQAEAQKVTFSQDPTTVALCISKEGRPPARISWLSSLDWEAKETQVSGTLAGTVTVTSRFTLVPSGRADGVTVTCKVEHESFEEPALIPVTLSVRYPPEVSISGYDDNWYLGRTDATLSCDVRSNPEPTGYDWSTTSGTFPTSAVAQGSQLVIHAVDSLFNTTFVCTVTNAVGMGRAEQVIFVRETPNTAGAGATGGIIGGIIAAIIATAVAATGILICRQQRKEQTLQGAEEDEDLEGPPSYKPPTPKAKLEAQEMPSQLFTLGASEHSPLKTPYFDAGASCTEQEMPRYHELPTLEERSGPLHPGATSLGSPIPVPPGPPAVEDVSLDLEDEEGEEEEEYLDKINPIYDALSYSSPSDSYQGKGFVMSRAMYV
In the case of B5, in series [1], the “Fold Change (D1 vs D28)” value is given as −1.1579. The “Fold Change, Down-Regulated” value in series [2] was −1.5594.

B6: PRDX6 (protein, UniProt P30041 2-224, looked up)
Peroxiredoxin-6: PGGLLLGDVAPNFEANTTVGRIRFHDFLGDSWGILFSHPRDFTPVCTTELGRAAKLAPEFAKRNVKLIALSIDSVEDHLAWSKDINAYNCEEPTEKLPFPIIDDRNRELAILLGMLDPAEKDEKGMPVTARVVFVFGPDKKLKLSILYPATTGRNFDEILRVVISLQLTAEKRVATPVDWKDGDSVMVLPTIPEEEAKKLFPKGVFTKELPSGKKYLRYTPQP
With B6, the “Fold Change (D1 vs D28)” value in series [1] was −1.061. In addition, in series [2], the “Fold Change, Down-Regulated” value is recorded as −1.4644.

B7: CCL15 (protein, UniProt Q16663 22-113, looked up)
C-C motif chemokine 15: QFTNDAETELMMSKLPLENPVVLNSFHFAADCCTSYISQSIPCSLMKSYFETSSECSKPGVIFLTKKGRQVCAKPSGPGVQDCMKKLKPYSI
As for B7, the “Fold Change (D1 vs D28)” value in series [1] amounted to 1.1003. In addition, the “Fold Change, Down-Regulated” value in series [2] was −1.6016.

B8: SIGLEC7 (protein, UniProt Q9Y286 19-467, looked up)
Sialic acid-binding Ig-like …: QKSNRKDYSLTMQSSVTVQEGMCVHVRCSFSYPVDSQTDSDPVHGYWFRAGNDISWKAPVATNNPAWAVQEETRDRFHLLGDPQTKNCTLSIRDARMSDAGRYFFRMEKGNIKWNYKYDQLSVNVTALTHRPNILIPGTLESGCFQNLTCSVPWACEQGTPPMISWMGTSVSPLHPSTTRSSVLTLIPQPQHHGTSLTCQVTLPGAGVTTNRTIQLNVSYPPQNLTVTVFQGEGTASTALGNSSSLSVLEGQSLRLVCAVDSNPPARLSWTWRSLTLYPSQPSNPLVLELQVHLGDEGEFTCRAQNSLGSQHVSLNLSLQQEYTGKMRPVSGVLLGAVGGAGATALVFLSFCVIFIVVRSCRKKSARPAADVGDIGMKDANTIRGSASQGNLTESWADDNPRHHGLAAHSSGEEREIQYAPLSFHKGEPQDLSGQEATNNEYSEIKIPK
On to B8, for which the “Fold Change (D1 vs D28)” value in series [1] was −1.0923. For the same molecule, the “Fold Change, Down-Regulated” value in series [2] was −1.4749.
